Measurements: article PMC7271317
Results are given in words; binding and its absence hold for the method and conditions named. A result given as binding can be weak or reduced; the word gives no strength. Where a sequence is shown, tags or fusion partners need not be part of it.

Key:
[1] = target: T1, motor (Mot) domain of HSET fused to GFP (aa 145-673) (human) (UniProt Q9BW19); assay: pull-down; 20 μl GFP-Trap beads with FL, tail or motor GFP-HSET incubated with 300 μl purified recombinant IFT88/70/52/46 for 1 h at RT, five washes with buffer containing 0.2% NP-40, immunoblot; GFP-Trap beads alone as control; both purified
T1 sequence: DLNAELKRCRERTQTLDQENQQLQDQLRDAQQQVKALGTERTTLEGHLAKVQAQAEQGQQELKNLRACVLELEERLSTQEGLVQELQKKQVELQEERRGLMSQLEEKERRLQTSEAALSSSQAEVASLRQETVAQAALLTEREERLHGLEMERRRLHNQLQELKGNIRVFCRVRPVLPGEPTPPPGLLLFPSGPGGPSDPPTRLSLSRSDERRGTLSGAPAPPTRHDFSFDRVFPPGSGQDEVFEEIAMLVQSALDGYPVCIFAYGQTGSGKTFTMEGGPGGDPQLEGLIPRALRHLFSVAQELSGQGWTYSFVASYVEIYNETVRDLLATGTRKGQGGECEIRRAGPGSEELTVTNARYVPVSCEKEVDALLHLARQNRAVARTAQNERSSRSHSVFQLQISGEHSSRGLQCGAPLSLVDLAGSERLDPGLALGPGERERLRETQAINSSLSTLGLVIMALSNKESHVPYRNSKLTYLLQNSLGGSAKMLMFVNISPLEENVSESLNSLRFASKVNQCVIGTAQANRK

[2] = target: T2, recombinant full-length (FL) GFP-HSET (human) (UniProt Q9BW19); assay: as above
T2 sequence: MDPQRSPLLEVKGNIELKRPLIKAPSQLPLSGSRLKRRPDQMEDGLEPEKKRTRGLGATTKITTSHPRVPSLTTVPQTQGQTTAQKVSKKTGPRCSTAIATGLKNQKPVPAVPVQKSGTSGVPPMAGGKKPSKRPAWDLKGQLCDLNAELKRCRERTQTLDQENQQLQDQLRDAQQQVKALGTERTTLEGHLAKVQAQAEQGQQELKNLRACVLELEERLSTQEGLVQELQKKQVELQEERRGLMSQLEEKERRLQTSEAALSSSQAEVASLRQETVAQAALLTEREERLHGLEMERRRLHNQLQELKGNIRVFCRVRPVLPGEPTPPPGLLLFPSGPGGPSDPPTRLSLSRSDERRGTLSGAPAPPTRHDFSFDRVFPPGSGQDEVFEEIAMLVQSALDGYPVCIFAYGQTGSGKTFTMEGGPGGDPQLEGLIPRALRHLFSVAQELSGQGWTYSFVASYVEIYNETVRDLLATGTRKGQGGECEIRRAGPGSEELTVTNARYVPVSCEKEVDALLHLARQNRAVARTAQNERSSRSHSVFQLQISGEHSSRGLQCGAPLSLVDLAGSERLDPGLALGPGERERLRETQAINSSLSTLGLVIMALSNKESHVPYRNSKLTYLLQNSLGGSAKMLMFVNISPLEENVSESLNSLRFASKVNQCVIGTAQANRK

binding [1]: binds
binding [2]: binds
Substance: purified recombinant IFT-B subcomplex made of IFT88/70/52/46
